The list is a part of this screen's results and no random one: it is rich in T/C values a quarter to a half above the control, in often repeated tests (any T/C) and in doses without a T/C. Further doses and runs are listed elsewhere. T/C gives the treated animals as a percentage of the vehicle group. Some entries give survivors of the animals treated and no T/C: the source holds a T/C of zero for them, seemingly a mark for toxic or unscored doses. Some doses without a T/C left all or most animals alive at the check, yet need not have been tolerated: the source hardly ever lists a survival T/C far under the control, and the zero likely stands for such cases as well. Counts of survivors are from the toxicity check (mostly the fifth day) where no day follows; animals may have died later. Schedules are NCI's codes, read here as Q, the interval in days (D) or hours (H), X, the number of doses. Some entries were tested several times; the results are listed from low to high. For survival time, the PubChem record calls one and a half times the control and up active, and a quarter to a half above the control has no call in these data; cut-offs in other NCI protocols can differ. Some T/C values carry the count of animals alive at the toxicity check (mostly the fifth day); without a count, all were alive then. Signs of the kind (2×) stand for listed records that agree.
Tested on: B6C3F1 mice, ip Sarcoma M5076, median survival T/C
Assay: NCI In Vivo Anticancer Drug Screen. Data for tumor model Sarcoma M5076 (intraperitoneal) in B6C3F1 mice
Conditions: T/C endpoint: median survival time, higher T/C = longer survival
How it was run: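 Mice carrying the transplanted tumour received compound treatment. Survival was recorded, and each value is the treated-group measurement divided by that of the vehicle-dosed control group.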

[1] = dose: 100.0 mg/kg/injection, schedule: Q04DX004 (ip), vehicle: Klucel (hydroxypropylcellulose) (HPC)
[2] = dose: 400.0 mg/kg/injection, schedule: Q04DX004 (ip), vehicle: Klucel (hydroxypropylcellulose) (HPC)
[3] = dose: 800.0 mg/kg/injection, schedule: Q04DX004 (ip), vehicle: Klucel (hydroxypropylcellulose) (HPC)
[4] = dose: 600.0 mg/kg/injection, schedule: Q04DX004 (ip), vehicle: saline with Tween-80

Cc1ccc(C2=CSC3=NCCN23)cc1Cl
T/C (dose: 1.5 mg/kg/injection, schedule: Q04DX004 (ip), vehicle: saline): 126 % of control
T/C (dose: 12.5 mg/kg/injection, schedule: Q04DX004 (ip), vehicle: saline): 144 % of control
survivor count (dose: 100.0 mg/kg/injection, schedule: Q04DX004 (ip), vehicle: saline): 0 of 10 on day 14
survivor count (dose: 200.0 mg/kg/injection, schedule: Q04DX004 (ip), vehicle: saline): 0 of 10 on day 14

CC(=O)C1C(=O)C(=O)N(c2cc(C)ccc2O)C1=O (stereo unspecified)
survivor count (dose: 200.0 mg/kg/injection, schedule: Q04DX004 (ip), vehicle: Klucel + Tween-80): 4 of 10 on day 14
survivor count (dose: 400.0 mg/kg/injection, schedule: Q04DX004 (ip), vehicle: Klucel + Tween-80): 3 of 10 on day 14
survivor count (dose: 800.0 mg/kg/injection, schedule: Q04DX004 (ip), vehicle: Klucel + Tween-80): 0 of 10 on day 14

CCCCCCCCCCCC1NC(=S)NC(=O)C1C#N (stereo unspecified)
survivor count [1]: 10 of 10 on day 14
survivor count (dose: 200.0 mg/kg/injection, schedule: Q04DX004 (ip), vehicle: Klucel (hydroxypropylcellulose) (HPC)): 10 of 10 on day 14
survivor count [2]: 8 of 10 on day 14
survivor count [3]: 0 of 10 on day 14

CN(CN1C(=O)CCC1=O)CN1C(=O)CCC1=O
survivor count (dose: 800.0 mg/kg/injection, schedule: Q04DX004 (ip), vehicle: saline): 2 of 10 on day 14

Cn1cc(NC(=O)c2cc(NC(=O)c3cc(NC=O)cn3C)cn2C)cc1C(=O)NCCC(=N)N
survivor count (dose: 200.0 mg/kg/injection, schedule: Q04DX004 (ip), vehicle: water): 6 of 10 on day 14

OCCOCCN1CCN(CCCN2c3ccccc3Sc3ccc(C(F)(F)F)cc32)CC1
survivor count (dose: 120.0 mg/kg/injection, schedule: Q04DX004 (ip), vehicle: saline): 0 of 10 on day 14 and 7 of 10 on day 14

NS(=O)(=O)OCCCCCCCOS(N)(=O)=O
T/C (dose: 50.0 mg/kg/injection, schedule: Q04DX004 (ip), vehicle: saline with Tween-80): 147 % of control
survivor count (dose: 200.0 mg/kg/injection, schedule: Q04DX004 (ip), vehicle: saline with Tween-80): 8 of 10 on day 14
survivor count (dose: 400.0 mg/kg/injection, schedule: Q04DX004 (ip), vehicle: saline with Tween-80): 0 of 10 on day 14

COC1C(N)C(OC2C(Oc3cccc4c(O)c5c(=O)oc6ccc(C)c7c(=O)oc(c34)c5c67)OC(C)C(O)C2(C)O)OC(C)C1O (stereo unspecified)
T/C (dose: 1.2 mg/kg/injection, schedule: Q04DX004 (ip), vehicle: DMSO): 131 % of control [9 of 10 alive on day 14]
T/C (dose: 1.25 mg/kg/injection, schedule: Q04DX004 (ip), vehicle: other): 146 % of control
T/C (dose: 2.5 mg/kg/injection, schedule: Q04DX004 (ip), vehicle: DMSO): 144 % of control
T/C (dose: 2.5 mg/kg/injection, schedule: Q04DX004 (ip), vehicle: other): 145 % of control
T/C (dose: 5.0 mg/kg/injection, schedule: Q04DX004 (ip), vehicle: DMSO): 148 % of control [9 of 10 alive on day 14]
T/C (dose: 5.0 mg/kg/injection, schedule: Q04DX004 (ip), vehicle: other): 146 [9 of 10 alive on day 14] and 149 % of control
survivor count (dose: 10.0 mg/kg/injection, schedule: Q04DX004 (ip), vehicle: other): 6 of 10 on day 14
survivor count (dose: 20.0 mg/kg/injection, schedule: Q04DX004 (ip), vehicle: DMSO): 4 of 10 on day 14
survivor count (dose: 20.0 mg/kg/injection, schedule: Q04DX004 (ip), vehicle: other): 1 of 10 on day 14 and 4 of 10 on day 14
survivor count (dose: 40.0 mg/kg/injection, schedule: Q04DX004 (ip), vehicle: other): 0 of 10 on day 14

COc1ccc(NC(=O)C2C(=O)C(=O)N(c3ccc(OC)cc3OC)C2=O)c(OC)c1 (stereo unspecified)
survivor count [2]: 5 of 10 on day 14
survivor count [3]: 0 of 10 on day 14

Cc1c(O)/c(=C\O)c2nc3c(=O)ccc(C(=O)NCCN(C)C)c3[nH]c2c1=O
survivor count (dose: 400.0 mg/kg/injection, schedule: Q04DX004 (ip), vehicle: water): 0 of 10 on day 14

CC(C)(C[NH-])C[NH-].[Cl][Pt+2][Cl]
T/C (dose: 0.25 mg/kg/injection, schedule: Q04DX004 (ip), vehicle: water): 136 % of control
T/C (dose: 0.5 mg/kg/injection, schedule: Q04DX004 (ip), vehicle: water): 131 and 132 % of control

CN1CCC2CC1c1ccn(C)c1C2=O (stereo unspecified)
survivor count (dose: 30.0 mg/kg/injection, schedule: Q04DX004 (ip), vehicle: saline): 5 of 10 on day 14
survivor count (dose: 60.0 mg/kg/injection, schedule: Q04DX004 (ip), vehicle: saline): 0 of 10 on day 14

NC(=O)c1oc([N+](=O)[O-])c(-c2ccccc2)c1-c1ccccc1
survivor count [4]: 10 of 10 on day 14

S=c1sc(-c2ccc(Cl)cc2)nn1CSc1nc2ccccc2o1
survivor count (dose: 75.0 mg/kg/injection, schedule: Q04DX004 (ip), vehicle: saline with Tween-80): 9 of 10 on day 14
survivor count (dose: 150.0 mg/kg/injection, schedule: Q04DX004 (ip), vehicle: saline with Tween-80): 10 of 10 on day 14
survivor count [4]: 8 of 10 on day 14

O=[N+]([O-])c1ccc([I+]c2ccccc2)cc1
survivor count [1]: 5 of 10 on day 9

O=C(Nc1ccc2ccccc2c1)C1C(=O)C(=O)N(c2ccc3ccccc3c2)C1=O (stereo unspecified)
survivor count [2]: 10 of 10 on day 14
survivor count [3]: 8 of 10 on day 14

O=C1c2ccccc2C(=O)c2c(NCCNCCO)ccc(NCCNCCO)c21
T/C (dose: 4.0 mg/kg/injection, schedule: Q04DX004 (ip), vehicle: saline): 126 % of control
T/C (dose: 10.0 mg/kg/injection, schedule: Q04DX004 (ip), vehicle: saline): 137 % of control
T/C (dose: 10.0 mg/kg/injection, schedule: Q04DX004 (ip), vehicle: suspension in saline): 149 % of control
T/C (dose: 20.0 mg/kg/injection, schedule: Q04DX004 (ip), vehicle: saline, evaluated on day 60): 153 and 171 % of control
T/C (dose: 20.0 mg/kg/injection, schedule: Q04DX004 (ip), vehicle: saline, evaluated on day 75): 136, 155 (2×), 156, 159 [9 of 10 alive on day 9], 170, 187 % of control
T/C (dose: 20.0 mg/kg/injection, schedule: Q04DX005 (ip), vehicle: saline, evaluated on day 75): 150, 159, 164, 185 % of control
T/C (dose: 20.0 mg/kg/injection, schedule: Q04DX005 (ip), vehicle: saline, evaluated on day 100): 319 % of control
T/C (dose: 40.0 mg/kg/injection, schedule: Q04DX004 (ip), vehicle: saline, evaluated on day 60): 183 and 200 % of control
T/C (dose: 40.0 mg/kg/injection, schedule: Q04DX004 (ip), vehicle: saline, evaluated on day 75): 150, 169, 181, 182 [9 of 10 alive on day 14], 185, 188, 216 % of control
T/C (dose: 40.0 mg/kg/injection, schedule: Q04DX005 (ip), vehicle: saline, evaluated on day 75): 160, 166, 170, 219 % of control
T/C (dose: 40.0 mg/kg/injection, schedule: Q04DX005 (ip), vehicle: saline, evaluated on day 100): 319 % of control
T/C (dose: 80.0 mg/kg/injection, schedule: Q04DX004 (ip), vehicle: saline, evaluated on day 60): 234 % of control [9 of 10 alive on day 14]
T/C (dose: 80.0 mg/kg/injection, schedule: Q04DX004 (ip), vehicle: saline, evaluated on day 75): 178, 192, 207 [9 of 10 alive on day 9], 209, 219, 241, 274 % of control
survivor count (dose: 80.0 mg/kg/injection, schedule: Q04DX004 (ip), vehicle: saline): 6 of 10 on day 14
survivor count (dose: 80.0 mg/kg/injection, schedule: Q04DX004 (ip), vehicle: suspension in saline): 5 of 10 on day 14
T/C (dose: 80.0 mg/kg/injection, schedule: Q04DX005 (ip), vehicle: saline, evaluated on day 75): 186 [9 of 10 alive], 215, 278 % of control
T/C (dose: 80.0 mg/kg/injection, schedule: Q04DX005 (ip), vehicle: saline, evaluated on day 100): 319 % of control
survivor count (dose: 80.0 mg/kg/injection, schedule: Q04DX005 (ip), vehicle: saline): 6 of 9 on day 9
survivor count (dose: 160.0 mg/kg/injection, schedule: Q04DX004 (ip), vehicle: saline): 0 of 10 on day 14, 1 of 10 on day 14, 2 of 10 on day 14, 3 of 10 on day 9, 5 of 10 on day 9, 9 of 10 on day 9, 10 of 10
survivor count (dose: 160.0 mg/kg/injection, schedule: Q04DX005 (ip), vehicle: saline): 4 of 10 on day 9, 5 of 10 on day 9, 6 of 10 on day 9, 8 of 10
